# According to patent US20090162358A1:
# Sequences of proteins named here, by UniProt entry; tags and fusion partners are left off. Residues count along the entry.
# human β-amyloid (Aβ), length not specified (P05067, residues 672-713): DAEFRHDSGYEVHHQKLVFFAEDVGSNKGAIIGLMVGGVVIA
# C-terminal biotinylated β-amyloid(1-40) peptide (P05067, residues 672-711): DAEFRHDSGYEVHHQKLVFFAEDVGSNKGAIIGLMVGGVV
# UniProt P12023, residues 672-713: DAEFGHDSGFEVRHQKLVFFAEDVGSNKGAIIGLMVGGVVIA
# UniProt Q60495, residues 672-713: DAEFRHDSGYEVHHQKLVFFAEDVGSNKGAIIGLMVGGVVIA
# Results are given in words; binding and its absence hold for the method and conditions named. Some results given as binding are weak or reduced against the parent protein; the word gives no strength.
# How the values were obtained:
# [1] = biological target: N-terminal biotinylated β-amyloid(1-40) peptide (UniProt P05067); assay: FMAT bead immunoassay, culture supernatant
# [2] = biological target: C-terminal biotinylated β-amyloid(1-40) peptide (UniProt P05067); assay: FMAT bead immunoassay, culture supernatant
# [3] = biological target: human β-amyloid (Aβ), length not specified (human) (UniProt P05067); assay: MSD ECL sandwich immunoassay, 6F6 as capture antibody, biotinylated 4G8 as detection antibody
# [4] = biological target: amyloid beta deposited in the retina of cfh-/- mice (mouse) (UniProt P12023); assay: IHC, retina of six month old cfh-/- mice
# [5] = biological target: human β-amyloid (Aβ), length not specified (human) (UniProt P05067); assay: protein A immunoprecipitation from TASTPM mouse plasma, Western blot with 6E10
# [6] = biological target: guinea pig β-amyloid (in vivo, plasma) (guinea pig) (UniProt Q60495); assay: ELISA of antibody-β-amyloid complexes in guinea pig plasma after i.v. 6F6
# [7] = biological target: amyloid beta deposited in the retina of cfh-/- mice (mouse) (UniProt P12023); assay: IHC, retina sections
# [8] = biological target: human β-amyloid (Aβ), length not specified (human) (UniProt P05067); assay: IHC, eye tissue of a human donor
# [9] = biological target: amyloid beta deposited in the retina of cfh-/- mice (mouse) (UniProt P12023); assay: IHC, retina sections, 6F6 at 1 in 4000
# [10] = biological target: human β-amyloid (Aβ), length not specified (human) (UniProt P05067); assay: ELISA and SPR (Biacore)
binding [1],binding [2],Binder,also measured
binds,binds,"2C1 mouse monoclonal antibody (antibody, V domains shown) VH: EVQLQQSGAELVKPGASVKLSCTGSGFNIKVYYVHWLKQLTEQGLEWIGRIDPENGETIYAPKFQDKATLTVDTSSNTAYLQLSSLTSEDTAVYYCVSSGYWGQGTTLTVSS VL: DIVMTQSAFSNPVTLGTSASISCRSSKSLLHRNGITYLYWYLQKPGQSPQLLIYQMSNLASGVPDRFTSSGSGTDFTLKISRVEAEDVGVYYCAQNLELWTFGGGTKLEIK",–
binds,binds,"4D4 mouse monoclonal antibody (antibody, V domains shown) VH: EVQLQQSGAELVEPGASVKLSCTGSGFNIKVYYVHWLKQLTEQGLEWIGRIDPENGETLYTPKFQGKATLTVDTSSNTAYLQLNSLTSEDTAVYYCVSSGYWGQGTSLTVSS VL: DIVMTQSAFSNPVTLGTSASISCRSSKSLLHRNGITYLYWYLQKPGQSPQLLIYQMSNLASGVPDRFTSSGSGTDFTLKISRVEAEDVGVYYCAQNLELWTFGGGTKLEIK",–
binds,binds,"5D1 mouse monoclonal antibody (antibody, V domains shown) VH: EVQLQQSGAELVKPGASVKLSCTGSGFNIKVYYVHWLKQLTEQGLEWIGRIDPENGETKYAPKFQDKATLTVDTSSNTAYLHLSSLTSEDTAVYYCVSSGYWGQGTTLTVSS VL: DIVMTQSAFSNPVTLGTSASISCRSSKSLLHRNGITYLYWYLQKPGQSPQLLIYQMSNLASGVPDRFTSSGSGTDFTLKISRVEAEDVGVYYCAQNLELWTFGGGTKLEIK",–
binds,binds,"5C9 mouse monoclonal antibody (antibody, V domains shown) VH: EVQLQQSGAEFVRPGASVKLSCTASGFNIKTYYIHWLKQRTDQGLEWIGRIDPEDGETKFGPKFRGKATLTADTSSNTASLQLSSLTSEDTGVYYCVTSGYWGQGTTLSVSS VL: DIVMTQAAFSNPVTLGTSASISCRSSKSLLHSNGITYLYWYLQKPGQSPQLLIYQMSNLASGVPDRFSSSGSGTDFTLRISRVEAEDVGVYYCAQNLELWTFGGGTKLEIK",–
binds,binds,"6F6 murine monoclonal antibody (antibody, mouse IgG2a, V domains shown) VH: EVQLQQSGAELVEPGASVKLSCTGSGFNIKVYYVHWLKQLTEQGLEWIGRIDPENGETIYTPKFQDKATLTVDTSSNTAYLQLSSLTSEDAAVYYCVSSGYWGQGTTLTVSS VL: DIVMTQSAFSNPVTLGTSASISCRSSKSLLHRNGITYLYWYLQKPGQPPQLLIYQMSNLASGVPDRFTSSGSGTDFTLKISRVEAEDVGVYYCAQNLELWTFGGGTKLEIK",binding [3]: binds; binding [4]: binds; binding [5]: binds; binding [6]: binds; binding [7]: binds; binding [8]: binds; binding [9]: binds
binds,binds,"14B3 mouse monoclonal antibody (antibody, V domains shown) VH: EVQLQQSGAELVEPGASVKLSCTGSGFNIKVYYVHWLKQLTEQGLEWIGRIDPENGETLYTPKFQGKATFTVDTSSNTAYLQLSSLTSEDTAVYYCVSSGYWGQGTTLTVSS VL: DIVMTQSAFSNPVTLGTSASISCRSSKSLLHRNGITYLYWYLQKPGQSPQLLIYQMSNLASGVPDRFTSSGSGTDFTLKISRVEAEDVGVYYCAQNLELWTFGGGTKLEIK",–
binds,binds,"2E11 mouse monoclonal antibody (antibody, V domains shown) VH: EVQLQQSGAEVVKPGASVKLSCTASGFNIKVYYIHWLKQLTEQGLEWIGRIDPENGETKYVPKFQGKATLTVDTSSNTAYLHLSSLTSEDTGVYYCVTSGYWGQGTTLTVSS VL: DIVMTQAAFSNPVALGTSASISCRSSKSLLHSNGITYLYWYLQKPGQSPQLLIYQMSNLASGVPDRFSSSGSGTDFTLRISRVEAEDVGVYYCAQNLELWTFGGGTKLEIK",–
–,–,"chimeric 6F6 antibody (6F6c) (antibody, human IgG1, V domains shown) VH: EVQLQQSGAELVEPGASVKLSCTGSGFNIKVYYVHWLKQLTEQGLEWIGRIDPENGETIYTPKFQDKATLTVDTSSNTAYLQLSSLTSEDAAVYYCVSSGYWGQGTLVTVSS VL: DIVMTQSAFSNPVTLGTSASISCRSSKSLLHRNGITYLYWYLQKPGQPPQLLIYQMSNLASGVPDRFTSSGSGTDFTLKISRVEAEDVGVYYCAQNLELWTFGGGTKLEIK",binding [10]: binds
binds,binds,"16D4 mouse monoclonal antibody (antibody, V domains shown) VH: EVQLQQSGAELVKPGASVKLSCTASGFNIKDYYMHWLKQLTEQGLEWIGRIDPENGETQYAPKFQGKASLTADTSSNTAYLHLSSLTSEDTAVYYCVSSGYWGQGTTLTVSS VL: DIVMTQAAFSNPVTLGTSASISCRSSKSLLHSNGITYLYWYLQKPGQSPQLLIYQMSNLASGVPDRFSSSGSGTDFTLRISRVEAEDVGVYYCAQNLELWTFGGGTKLEIK",–
